Reference: PubChem BioAssay AID2685 (National Center for Advancing Translational Sciences (NCATS), 2010)
The list shows a part of the results. These are further read-outs of the screen, such as a control signal, another cell line or another target. No call is given for them. Most of these compounds were active or inconclusive in the main read-out, so they are no random draw. Potencies come from curve fits of mixed quality, noted in brackets.

Assay: qHTS Assay for Lipid Storage Modulators in Drosophila S3 Cells;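 as to cell number change: cells counted by Cell Tracker Red CMTPX staining in the red channel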
Conditions: BODIPY lipid droplet fluorescence, 18-24 h; for cell number change: measured here: cell count max response, cells fed with added oleic acid
Outline: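 Drosophila S3 cells loaded with oleic acid (400 uM, as added) and compounds at several concentrations; lipid droplets imaged by 488-nm laser-scanning cytometry, 500–530 nm intensity and object ratio to cell channel. Percent activity normalized to 20 uM Triacsin C.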

[1] = measured here: lipid fluorescence (Fed channel) AC50, cells fed with added oleic acid
[2] = measured here: cell number channel AC50, cells fed with added oleic acid

SMILES	cell number change [%]	AC50 [1]	AC50 [2]
O=C(O)CCCCCNC(=O)c1cccc(Br)c1	1.33	–	–
CCOC(=O)c1cc(-c2csc(COc3ccccc3)n2)on1	2.38	0.0058 µM [falling, full curve, poor fit]	–
COc1ccc2nc(SCC(=O)NCc3ccc(S(N)(=O)=O)cc3)[nH]c2c1	15.3	–	–
COc1ccc(Nc2c3ccccc3nc3ccccc23)cc1	-39	29.1 µM [falling, single point]	20.6 µM [falling, single point]
CCOC(=O)c1cccc(NC(=O)/C=C/c2ccc3c(c2)OCO3)c1	7.62	6.51 µM [falling, single point]	5.17 µM [falling, single point]
O=C(C1CCCO1)N1CCN(Cc2c(O)ccc3ccccc23)CC1 (stereo unspecified)	-20.2	–	0.731 µM [falling, full curve, poor fit]
Cc1cccc(NC(=S)N2CCN(c3ccccc3F)CC2)c1C	-4.2	5.8 µM [rising, full curve]	–
CCOc1[nH]n(-c2ccccc2)c(=O)c1C=NCc1cccnc1	38	25.9 µM [rising, single point]	0.00461 µM [rising, full curve, poor fit]
Cc1[nH]nc(SCC(=O)N2CCC(C)CC2)c1[N+](=O)[O-]	78.1	–	29.1 µM [rising, single point]
N#C/C(=N/Nc1ccc(OC(F)(F)F)cc1)C(N)=S	-65.5	23.1 µM [falling, partial curve]	23.1 µM [falling, partial curve]
Cc1ccc2nsnc2c1S(=O)(=O)NCCc1c(C)[nH]c2ccc(F)cc12	–	2.59 µM [rising, partial curve]	–
CC(C)(C)c1ccc(/C=C2\Oc3cc(OC(=O)N4CCOCC4)ccc3C2=O)cc1	-50	18.4 µM [falling, partial curve, poor fit]	20.6 µM [falling, single point]
COc1ccc(C(=O)NCc2cccnc2)cc1C(=O)NCc1cccnc1	46	3.26 µM [rising, partial curve]	2.91 µM [rising, full curve]
Cc1ccc(S(=O)(=O)NCCNC(=O)c2ccccc2)cc1	39	–	25.9 µM [rising, single point]
O=C(C1CCC(=O)N(C2CCCC2)C1)N1CCN(c2ccc(Cl)cc2)CC1 (stereo unspecified)	-6.12	4.61 µM [falling, single point]	–
COc1ccc(C)cc1NC(=O)CCC(=O)Nc1ccc2nc(N3CCN(C)CC3)cc(C)c2c1	-40.8	29.1 µM [falling, single point]	14.6 µM [falling, partial curve, poor fit]

Entries of single compounds, looked up by structure.
O=C(C1CCCO1)N1CCN(Cc2c(O)ccc3ccccc23)CC1 (stereo unspecified) in the list: cell number change [%]: -20.2; AC50 [2]: 0.731 µM [falling, full curve, poor fit]
CC(C)(C)c1ccc(/C=C2\Oc3cc(OC(=O)N4CCOCC4)ccc3C2=O)cc1 in the list: cell number change [%]: -50; AC50 [1]: 18.4 µM [falling, partial curve, poor fit]; AC50 [2]: 20.6 µM [falling, single point]
